Some of these results come from one statement about several compounds together.
Assay: HPLC analysis of active degradation after accelerated storage
Type: physicochemical
Conditions: in samples after 90 days at 35° C. or 30 days at 50° C.
Method: The degradation of the biocide-containing liposome emulsion can be qualitatively observed by the formation of an insoluble precipitate. Quantitatively, high pressure liquid chromatography (HPLC) analysis was used to determine actives concentrations for samples stored under accelerated storage conditions. The samples that passed 90 days at 35° C. or 30 days at 50° C. were taken to ambient temperature and analyzed. The stability of these liposome emulsions was determined as follows.
HPLC analysis was executed for active degradation of 5-chloro-2-methyl-4-isothiazolin-3-one and 2-methyl-4-isothiazolin-3-one in the samples after 90 days at 35° C. or 30 days at 50° C.

Cn1sc(Cl)cc1=O [5-chloro-2-methyl-4-isothiazolin-3-one]
active degradation (HPLC): less than 10%

— US20150079158A1, “METHOD TO STABILIZE LIPOSOME EMULSIONS FOR BIOCIDAL DELIVERY” (General Electric Company, priority 2012, published 2015)
